# Measured values from patent US12528767B2, “HDAC6 inhibitors and uses thereof” (Eikonizo Therapeutics, Inc., priority 2019, dated 2026).
# At least one compound was matched to its structure with a doubt left.
# System: chemotherapy-induced peripheral neuropathy (CIPN) mouse model
# Assay: In vivo chemotherapy-induced peripheral neuropathy (CIPN) in mice treated with cisplatin
# Conditions: male C57BL/6 mice, cisplatin […] IP; 16 30 mg/kg PO, ACY-1083 10 mg/kg IP, QD Day 1 thru Day 17
structure (smiles),measurement,value
O=C(NO)c1cc(F)c2c(c1)CCN(C1CC3(CCCCC3)C1)C2 [compound 16],"Survival compared to vehicle in the presence of cisplatin (FIG. 4B, Kaplan-Meier)",rescued survival
